Results published in US20110014164A1, “EFFICIENT INDUCTION OF PLURIPOTENT STEM CELLS USING SMALL MOLECULE COMPOUNDS” (PRESIDENT AND FELLOWS OF HARVARD COLLEGE, priority 2008, published 2011).
At least one structure is not confirmed: it was looked up by name or label, or the drawing left a doubt.

Tested on: MEFs infected with the four factors (Oct4, Sox2, Klf4 and c-Myc)
Assay type: cell-based, mouse
Settings: 10 μM; 4-factor infected MEFs
Protocol: FIG. 1(a) MEFs infected with the four factors (Oct4, Sox2, Klf4 and c-Myc) were treated with various chemicals for a week, the percentage of Oct4-GFP positive cells induced was measured through FACS analysis, and compared to infected MEFs without treatment or treated with DMSO (the solvent for Dexamethasone, SAHA and TSA). The chemicals used were: 5′-azaC (2 μM), dexamethasone (dex, 1 μM), 5′-azaC (2 μM) together with dexamethasone (1 μM), VPA (2 mM), SAHA (5 μM) and TSA (20 nM). n=4 for each treatment. For all figures in this study, standard deviations are indicated by error bars, and P values by two-tailed student t-test less than 0.05, 0.01 and 0.001 are indicated by one, two and three asterisks respectively.
To quantitate reprogramming efficiency, we established an assay based on Fluorescence-Activated Cell Sorting (FACS) analysis using an Oct4-GFP transgenic reporter, where the expression of the green fluorescent protein (GFP) is controlled by the promoter and enhancers of Oct4, a pluripotent marker gene^14.
MEFs were derived from e13.5 embryos hemizygous for the Oct4-GFP transgenic allele. Embryos were sexed by inspecting gonads for the pattern of Oct4-GFP expression. Gonads and internal organs were removed before processing the embryos for MEF isolation. […]

Question: `C=C[C@@]1(C)CC(=O)[C@]2(O)[C@@]3(C)[C@@H](O)CCC(C)(C)[C@@H]3[C@H](O)[C@H](OC(C)=O)[C@@]2(C)O1` [forskolin] was tested. Which “effect on reprogramming efficiency” value did it give?
Answer: no significant effects
